The values below come from the supplement of paper PMC3334620.

Whole data set: some 33,000 sequences, median “E-score (-0.5 to 0.5)” near -0.0034, cut for the highest 2% near 0.25. The list shows a part of the results.

This assay addresses T1, Yap3 (UniProt P38749).
T1 sequence: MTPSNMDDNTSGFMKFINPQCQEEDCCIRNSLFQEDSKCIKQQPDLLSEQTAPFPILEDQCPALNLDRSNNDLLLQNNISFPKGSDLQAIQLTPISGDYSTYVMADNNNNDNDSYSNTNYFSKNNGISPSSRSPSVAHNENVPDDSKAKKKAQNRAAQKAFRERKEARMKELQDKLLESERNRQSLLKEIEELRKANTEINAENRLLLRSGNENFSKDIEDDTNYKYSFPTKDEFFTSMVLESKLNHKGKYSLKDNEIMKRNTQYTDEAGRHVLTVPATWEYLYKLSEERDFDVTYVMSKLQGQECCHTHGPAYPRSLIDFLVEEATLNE
Description: PBM E-score (8-mer binding enrichment) (E-score (-0.5 to 0.5)); higher = stronger / more preferred TF binding. As to conditions: protein concentration: 100 nM; construct: GST-full length. On the procedure: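 Universal 'all 10-mer' protein binding microarrays (Agilent AMADID 015681) probed with GST-tagged S. cerevisiae TFs (full-length or DBD) made by in vitro transcription/translation (PURExpress), about 100-200 nM. Bound TF was detected with fluorescent anti-GST. Each ungapped 8-mer (which stands for itself and its reverse complement) is scored by the PBM enrichment score (E-score), a modified Wilcoxon-Mann-Whitney statistic from -0.5 to +0.5, computed with the Universal PBM Analysis Suite. Scale: above 0.35 generally sequence-specific binding.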
ATATGCCC: the “PBM E-score” value is -0.115.
Turning to TCCACGGA, the “PBM E-score” value was 0.159.
The same measure for AATCGTTA: -0.00246; for CATACAGG: -0.131.
The value for CCCCTGAG was -0.229; that for AGATGTAA was 0.21.
The value for ATAAAGCA was 0.151; that for ATATCAAG was 0.26; that for CGGTCCAA was -0.17.
Take CTATCATC: the “PBM E-score” value was determined as 0.0471.
The same measure for ACTGAGGG: -0.182; for CACCGTTC: -0.00047.
In the case of CCGCCACG, the “PBM E-score” value was -0.182.
Turning to ACTTGGTC, the “PBM E-score” value was 0.066.
The same measure for ACTATGGG: -0.152; for GGAGCATA: 0.0546; for GTTTTCAA: 0.246.
The value for ACTGCCAC was -0.0144; that for AAGCATAC was 0.0585; that for AGTCGTCC was -0.197.
Regarding GGCGCTGA, the “PBM E-score” value was -0.124.
The same measure for ACATGTCG: 0.102; for ATCATGGC: 0.0955.
GGGTCCGA: the “PBM E-score” value was -0.169.
The value for TACTTTGA was 0.101.
The same measure for TAACGGTA: 0.187.
As to CCAGGAGA, the “PBM E-score” value was -0.0844.
The same measure for CATGGAGA: -0.0786; for GGATCGCA: 0.00507.
The value for CCCCTAAA was -0.272; that for CCTGATAA was 0.144; that for GTATTAAA was 0.141.
Take CAGGCTGC: the “PBM E-score” value was -0.111.
Take CCTAACAA: the “PBM E-score” value was determined as 0.188.
The same measure for CATCGCTC: -0.235; for CGGAAAGC: 0.0314; for TTCGCGAA: 0.178.
The value for CATAGATA was 0.139; that for TCGATACA was 0.198; that for AAACTTAG was 0.0547.
As to ATCTGCCC, the “PBM E-score” value was -0.11.
The value for GGCGGTAA was 0.0829; that for GTTTTGAA was 0.075; that for CCGATAAC was 0.116.
With ACAGTGAT, the “PBM E-score” value stood at 0.227.
The same measure for ATTAGGAG: 0.142.
The same measure for ATGGAAGC: -0.0433.
The same measure for CAGACATC: 0.0124; for AATGCGGG: 0.217; for GGCGTACC: -0.0845.
For the sequence CCAAGTGA, the “PBM E-score” value was determined as 0.0813.
The value for ATCGCACC was -0.106; that for AAGGTTCC was -0.0546.
Regarding CTTGAATA, the “PBM E-score” value was found to be 0.113.
On to GAACTAGA, for which the “PBM E-score” value amounted to 0.0868.
The value for ACGCTGCT was -0.0643.
In the case of CAAATTGC, the “PBM E-score” value worked out at 0.0855.
The same measure for GGAGGAGA: -0.189; for CCTCCCAA: -0.184.
Consider AGTTGTAA, for which the “PBM E-score” value was found to be 0.0857.
The same measure for ATTTTATA: 0.331.
The same measure for CTCCGATA: -0.0427; for CCGGTGAC: -0.147.
The value for ACTAGCAC was -0.0668; that for AGGACAGA was -0.00682.
As to GACCAGTC, the “PBM E-score” value is -0.235.
The same measure for ATGGTGAG: -0.0756; for GCTTCTAC: -0.0524.
As for AGCAATGG, the “PBM E-score” value was -0.114.
The value for GTACTCAC was 0.147.
As to TTGTCAAA, the “PBM E-score” value stood at 0.0866.
The value for ATTCCCAG was 0.0582.
The value for CCTTCAAA was 0.0729; that for TAGGTAGA was 0.076; that for AAGTAAAG was 0.103.
The same measure for CGTCTCTA: -0.193; for GCAAATAA: 0.143.
Consider ATATGCTA, for which the “PBM E-score” value came to 0.105.
Turning to CTGGCGAC, the “PBM E-score” value is -0.182.
The value for AACCGTCA was 0.0373; that for AACCTTCG was 0.0416.
The same measure for CACAAAGG: -0.1; for AGCAGACA: -0.0779; for ACGGACAT: -0.0278.
The same measure for CCCACTGA: -0.115; for CCACAGCC: -0.133.
Take CCCAGTCC: the “PBM E-score” value is -0.214.
The same measure for CCTCCTAG: -0.0672; for AGGACTGG: -0.221.
The value for GTGACATA was 0.244.
For the sequence CTCCAGAG, the “PBM E-score” value was -0.276.
The same measure for AGGGTGCC: -0.152; for GGTCGCGA: 0.0906; for ATAGTCAA: 0.0261.
